These results are taken from publication PMC2323224.

By UniProt entry, the sequences of proteins in these tests, tags left out.
UniProt Q0PBP3: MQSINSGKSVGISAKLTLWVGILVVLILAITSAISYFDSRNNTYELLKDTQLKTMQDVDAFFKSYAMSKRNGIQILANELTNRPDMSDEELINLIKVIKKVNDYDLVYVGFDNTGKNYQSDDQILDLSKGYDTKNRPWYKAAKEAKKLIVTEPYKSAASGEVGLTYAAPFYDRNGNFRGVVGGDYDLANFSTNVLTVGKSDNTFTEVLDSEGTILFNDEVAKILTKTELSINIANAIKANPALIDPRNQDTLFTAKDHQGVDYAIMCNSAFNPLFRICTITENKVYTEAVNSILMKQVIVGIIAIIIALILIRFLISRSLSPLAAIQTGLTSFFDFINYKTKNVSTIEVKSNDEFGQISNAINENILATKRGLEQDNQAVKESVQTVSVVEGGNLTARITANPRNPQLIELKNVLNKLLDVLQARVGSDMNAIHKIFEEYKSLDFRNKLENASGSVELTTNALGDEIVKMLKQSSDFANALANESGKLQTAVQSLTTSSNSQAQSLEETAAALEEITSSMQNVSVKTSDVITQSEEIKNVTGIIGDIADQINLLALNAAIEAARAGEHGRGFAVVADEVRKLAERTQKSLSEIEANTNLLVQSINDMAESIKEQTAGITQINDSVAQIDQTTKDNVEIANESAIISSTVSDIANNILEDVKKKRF
UniProt Q0P9E4: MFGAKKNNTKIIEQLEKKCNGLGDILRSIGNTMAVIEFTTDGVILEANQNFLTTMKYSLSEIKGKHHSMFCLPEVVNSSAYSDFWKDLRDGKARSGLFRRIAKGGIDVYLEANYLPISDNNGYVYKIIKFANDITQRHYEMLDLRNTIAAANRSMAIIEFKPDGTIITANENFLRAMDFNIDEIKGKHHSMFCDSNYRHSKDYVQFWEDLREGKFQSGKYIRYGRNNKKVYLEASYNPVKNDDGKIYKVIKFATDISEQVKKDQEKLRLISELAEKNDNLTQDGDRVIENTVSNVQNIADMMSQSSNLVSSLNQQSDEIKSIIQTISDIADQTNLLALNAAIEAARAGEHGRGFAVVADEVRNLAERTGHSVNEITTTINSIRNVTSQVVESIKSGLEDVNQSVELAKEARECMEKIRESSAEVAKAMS
UniProt P0C635: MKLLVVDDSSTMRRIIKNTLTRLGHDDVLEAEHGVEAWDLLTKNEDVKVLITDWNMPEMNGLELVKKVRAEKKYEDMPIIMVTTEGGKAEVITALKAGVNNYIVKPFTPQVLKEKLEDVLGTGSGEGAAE

Results are given in words; binding and its absence hold for the method and conditions named. Some entries that bind do so weakly or less than the wild type.

Common to all, as to assay: two-hybrid; LexA-based yeast two-hybrid; full length ORFs as LexA BD fusions (MAL62 promoter, strain Y309) mated with AD fusions (GAL1 promoter, strain RFY231); two-phase pooled matrix screen plus a library screen of 94 BD strains; LEU2 and lacZ reporters, background-corrected combined score >= 1; positives retested in one-on-one matings
The target in test [1] is Cj0262c (C. jejuni NCTC11168) (UniProt Q0PBP3).
The target of test [2] is Cj0448c (C. jejuni NCTC11168) (UniProt Q0PB65).
Test [3] deals with Cj1110c (C. jejuni NCTC11168) (UniProt Q0P9E4).
For test [4], the target named is CheY (C. jejuni NCTC11168) (UniProt P0C635).

B1: CheV (protein, UniProt Q0PBM1 1-318)
chain: MFDENIVKTGSNEMELVDFRIFKQGHDKVYEGIYGVNVSKVREIIKIPSLTELPGVPDYIEGIFDLRGVVIPVVNLAKWMQITEPESTMLKPRVIITEFSNILIGFIVHEAKRIRRINWKDIEPATFSTGSGALDKGKITGVTRIENDEVLLILDLESVVEDLGIYAPKTDIDFGKIEKFTGTALILDDSMTARKRVKEMMQQMGFQVVEAKDGVEGINKLEELSQIYGESLNDTLKIIVSDVEMPQMDGFHFAARIKEDPRFKDIPIVFNSSLSNEFMNEKGVQEAGGEGYLVKFNASDFFNEIAKVIKKHQSQEQG
As to B1, the binding result in test [1], in test [2] and in test [3] was “binds” in each case.

B2: CheA (protein, UniProt Q0PBM2 1-769)
chain: MEDMQEILEDFLVEAFELVEQIDHDLVELESNPEDLELLNRIFRVAHTVKGSSSFLNFDVLTKLTHHMEDVLNKARHGELKITPDIMDVVLESIDRMKTLLNSIRDNGNDTAIGMDIEPICARLTAISEGESPVVATDSNEKSIPQAELEAPKQEIATPEPEVDVNQLSDSEVEAEIERLLKVRKAEDQARRAQKKQTTNAAPKPTNNTANKPTESGEKKVPASGSNASSMDQTIRVEVKRLDHLMNLIGELVLGKNRLLKIYDDVEERYEGEKFLEELNQVVSQLSIIITDVQLAVMKTRMQPIAKVFNKFPRVVRDLSRELGKQIELEITGEETELDKSIVEEIGDPIMHMIRNSCDHGVEDPATRAANGKPEKGIVQLKAYNEGNHIVVEITDDGKGLDPNGLKAKAIEKNLITEREADQMTDKEAFALIFKPGFSTAAKVTNVSGRGVGMDVVKTNIEKLNGVIEIDSELGKGSSFKLKIPLTLAIIQSLLVGTQEEFYAIPLASVLETVRVPIDDIYTIEGKNVLRLRDEVLSLVRLSDVFGVKQVLESGDQTYVVVIGVAESKLGIIVDTLVGQEEIVIKSMGDYLQNIQGIAGATIRGDGRVTLIIDVGAMMDMAKEIKVDIKAQLESSAKKPKEQPSDYKVLIVDDSKMDRTLMQKALEPLGVSLIEATNGVEALNIIKSGEHDIDAMLIDIEMPRMDGYTLAGEIRKYSKYRNLPLIAVTSRTSKTDRLRGVEVGMTEYITKPYSPEYLENVVRKNLKLG
With B2, in test [4], the binding entry is recorded as “binds”.
